These are yes or no findings as the source states them, for the method shown.
Target: S100B protein (human) (UniProt P04271)
Assay: condition: only after extensive dialysis of 1 mg/mL protein against deionized water at pH 7 (low-salt S100B); native gel or EMSA; Coomassie-stained 16% native gel; low-salt S100B, 1 mg/mL protein solution extensively dialysed against deionized water at pH 7; both purified

B1: S100B protein (natural protein, human)
chain: SELEKAMVALIDVFHQYSGREGDKHKLKKSELKELINNELSHFLEEIKEQEVVDKVMETLDNDGDGECDFQEFMAFVAMVTTACHEFFEHE
notes: S100B, Homo sapiens, UniProt P04271; Gene carried in the pETDuet-1 vector; The protein is a homodimer as purified; the monomer was obtained by extensive dialysis against deionized water; also called dimeric S100B; monomeric S100B; source: E. coli BL21-CodonPlus (DE3)-RIL, purified (ammonium sulfate, HiTrap Q XL anion exchange)
- binding: no binding

From publication PMC12445344, “Influence of Calcium Ions on the Membrane Binding of S100B Protein” (Langmuir, 2025)
